The target of assay [1] is human MET-hIgG Fc fusion protein (Sino Biological Inc.) (human) (UniProt P08581). The experiment in a line: capture ELISA: cys-diabody coated on the plate, human MET-hIgG Fc applied, detected with alkaline phosphatase anti-human IgG. On the technique in general: An ELISA detects its analyte on a solid surface through an enzyme-linked reagent.
Assay [2] shares this target. The experiment in a line: capture ELISA: cys-diabody coated, MET-hFc applied, detected with anti-human Fc.

By UniProt entry, the sequences of proteins in these tests, tags left out. Residues count along the entry.
UniProt P08581, residues 25-932: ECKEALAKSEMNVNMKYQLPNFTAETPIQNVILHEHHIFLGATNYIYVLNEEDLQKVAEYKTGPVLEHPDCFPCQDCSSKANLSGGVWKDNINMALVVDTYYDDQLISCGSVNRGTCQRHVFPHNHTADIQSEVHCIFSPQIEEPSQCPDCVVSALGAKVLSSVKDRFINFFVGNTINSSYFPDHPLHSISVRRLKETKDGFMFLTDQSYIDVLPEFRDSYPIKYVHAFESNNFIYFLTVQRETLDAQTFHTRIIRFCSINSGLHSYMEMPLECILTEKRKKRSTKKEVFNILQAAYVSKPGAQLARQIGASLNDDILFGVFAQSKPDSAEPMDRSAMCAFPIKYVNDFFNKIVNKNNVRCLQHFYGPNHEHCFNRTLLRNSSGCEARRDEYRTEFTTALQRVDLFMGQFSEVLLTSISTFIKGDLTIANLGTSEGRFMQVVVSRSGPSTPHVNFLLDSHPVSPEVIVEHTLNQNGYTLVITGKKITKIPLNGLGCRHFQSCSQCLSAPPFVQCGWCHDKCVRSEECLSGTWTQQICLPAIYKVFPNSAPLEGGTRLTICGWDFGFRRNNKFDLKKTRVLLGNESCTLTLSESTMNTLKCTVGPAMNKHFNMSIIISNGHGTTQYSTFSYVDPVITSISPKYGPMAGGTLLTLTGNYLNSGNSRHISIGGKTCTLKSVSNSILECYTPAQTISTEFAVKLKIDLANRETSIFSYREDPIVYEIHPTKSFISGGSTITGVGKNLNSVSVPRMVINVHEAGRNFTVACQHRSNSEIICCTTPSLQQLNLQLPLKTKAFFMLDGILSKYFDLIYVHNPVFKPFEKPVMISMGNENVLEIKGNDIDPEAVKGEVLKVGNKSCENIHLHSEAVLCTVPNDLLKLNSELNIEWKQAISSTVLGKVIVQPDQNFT

Results are given in words; binding and its absence hold for the method and conditions named. Some entries that bind do so weakly or less than the wild type.

B1: C2 cys-diabody (other)
chain: QVQLQESGGGLVQPGGSLRLSCAASGFTFSSYAMSWVRQAPGKGLEWVSAISGSGGSTYYADSVKGRFTISRDNSKNTLYLQMNSLRAEDTAVYYCASQHVGEQSRYFDYWGQGTLVTVSSGGGGGSDIVMTQSPSSLSASIGDRVTITCRASHSISSYVNWYQKKPGKAPNLLIYAASYLPRGVPSRFSGSGLGTDFTLTISNLQPEDFATYYCQESYSTPYSFGQGTKVDIKRAAAEQKLISEEDLNGAAHHHHHHC
notes: Expressed in E. coli and purified through the His tag; also called C2 diabody
As for B1, the binding result in assay [1] and in assay [2] was “binds” each time.

B2: H5 cys-diabody (other)
chain: QVQLQESGGGLVQPGGSLRLSCAASGFTFSNYAMSWVRQAPGKGLEWVSAISGSGGSTYYADSVKGRFTISRDNSKNTLYLQMNSLRAEDTAVYYCAKDRFRAAAYWGQGTLVTVSSGGGGGSQSVLTQPPSVSAAPGQKVTISCTGSSSNIGAGYDVHWYQQLPGTAPKLLIYGNSNRPSGVPDRFSGSKSGTSASLAISGLQSEDEADYYCAAWDDILNGEIFGGGTKVTVLGAAAEQKLISEEDLNGAAHHHHHHC
notes: Expressed in E. coli and purified through the His tag; also called H5 diabody
With B2, the binding entry in assay [1] and in assay [2] was “binds” throughout.

(Values after patent publication US10407503B2, “Fully human antibodies and fragments recognizing human c-Met” (THE REGENTS OF THE UNIVERSITY OF CALIFORNIA, priority 2012, dated 2019).)
